Measurements: PMC4869170

The chains behind the UniProt entries cited, without tags or fusion partners.
UniProt Q9Y266: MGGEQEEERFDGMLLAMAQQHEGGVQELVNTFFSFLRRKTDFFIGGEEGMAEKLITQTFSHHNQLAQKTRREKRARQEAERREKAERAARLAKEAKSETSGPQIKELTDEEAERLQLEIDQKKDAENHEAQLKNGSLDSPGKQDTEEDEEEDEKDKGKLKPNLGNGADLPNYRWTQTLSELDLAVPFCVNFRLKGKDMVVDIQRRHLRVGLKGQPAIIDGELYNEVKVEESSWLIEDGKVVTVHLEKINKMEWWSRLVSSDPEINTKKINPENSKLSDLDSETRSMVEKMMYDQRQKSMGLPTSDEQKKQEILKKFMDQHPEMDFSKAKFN

Key:
IFT122 (human) = molecular target: T1, IFT122 (human) (UniProt Q9HBG6); experiment: affinity purification with mass spectrometry; SF-TAP-tagged bait overexpressed in HEK293T; lysis in 0.5% NP-40 in TBS (30 mM Tris-HCl pH 7.4, 150 mM NaCl); two steps at 4 °C: Strep-Tactin superflow (desthiobiotin elution), then anti-FLAG M2 agarose (FLAG peptide elution); LC-MS/MS; interactions scored by socioaffinity
T1 sequence: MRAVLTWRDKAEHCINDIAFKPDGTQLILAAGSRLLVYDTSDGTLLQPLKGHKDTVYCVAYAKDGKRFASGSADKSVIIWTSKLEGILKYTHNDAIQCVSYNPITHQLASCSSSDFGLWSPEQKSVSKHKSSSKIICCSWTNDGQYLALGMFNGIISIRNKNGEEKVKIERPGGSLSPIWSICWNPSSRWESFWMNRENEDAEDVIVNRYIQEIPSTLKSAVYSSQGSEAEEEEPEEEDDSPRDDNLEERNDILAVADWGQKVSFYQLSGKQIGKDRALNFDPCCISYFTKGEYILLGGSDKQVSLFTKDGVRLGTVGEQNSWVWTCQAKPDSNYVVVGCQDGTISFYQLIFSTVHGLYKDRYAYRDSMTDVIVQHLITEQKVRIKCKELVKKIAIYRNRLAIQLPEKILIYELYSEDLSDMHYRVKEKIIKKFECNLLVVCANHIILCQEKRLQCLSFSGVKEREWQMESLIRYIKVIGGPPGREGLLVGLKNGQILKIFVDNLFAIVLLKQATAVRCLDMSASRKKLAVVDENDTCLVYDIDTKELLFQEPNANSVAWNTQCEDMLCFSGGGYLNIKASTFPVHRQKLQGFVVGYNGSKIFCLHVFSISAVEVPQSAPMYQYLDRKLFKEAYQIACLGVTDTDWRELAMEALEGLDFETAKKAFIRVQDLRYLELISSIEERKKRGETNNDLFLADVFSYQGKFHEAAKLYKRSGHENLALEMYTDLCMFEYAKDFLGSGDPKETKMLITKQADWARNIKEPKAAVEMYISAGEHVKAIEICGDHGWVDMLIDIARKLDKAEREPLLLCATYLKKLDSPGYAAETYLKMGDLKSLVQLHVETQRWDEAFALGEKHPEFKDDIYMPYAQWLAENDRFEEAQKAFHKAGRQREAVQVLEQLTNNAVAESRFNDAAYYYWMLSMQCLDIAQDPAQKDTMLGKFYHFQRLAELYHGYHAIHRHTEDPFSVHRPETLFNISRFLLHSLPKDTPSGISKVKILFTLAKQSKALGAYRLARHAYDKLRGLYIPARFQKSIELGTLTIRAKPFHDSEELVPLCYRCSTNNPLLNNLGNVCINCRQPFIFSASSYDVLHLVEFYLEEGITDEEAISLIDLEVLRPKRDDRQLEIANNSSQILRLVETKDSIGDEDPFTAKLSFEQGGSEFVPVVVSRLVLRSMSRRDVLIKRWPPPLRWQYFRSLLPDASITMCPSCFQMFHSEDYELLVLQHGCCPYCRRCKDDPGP

WDR19 (human) = molecular target: T2, WDR19 (human) (UniProt Q8NEZ3); experiment: as above
T2 sequence: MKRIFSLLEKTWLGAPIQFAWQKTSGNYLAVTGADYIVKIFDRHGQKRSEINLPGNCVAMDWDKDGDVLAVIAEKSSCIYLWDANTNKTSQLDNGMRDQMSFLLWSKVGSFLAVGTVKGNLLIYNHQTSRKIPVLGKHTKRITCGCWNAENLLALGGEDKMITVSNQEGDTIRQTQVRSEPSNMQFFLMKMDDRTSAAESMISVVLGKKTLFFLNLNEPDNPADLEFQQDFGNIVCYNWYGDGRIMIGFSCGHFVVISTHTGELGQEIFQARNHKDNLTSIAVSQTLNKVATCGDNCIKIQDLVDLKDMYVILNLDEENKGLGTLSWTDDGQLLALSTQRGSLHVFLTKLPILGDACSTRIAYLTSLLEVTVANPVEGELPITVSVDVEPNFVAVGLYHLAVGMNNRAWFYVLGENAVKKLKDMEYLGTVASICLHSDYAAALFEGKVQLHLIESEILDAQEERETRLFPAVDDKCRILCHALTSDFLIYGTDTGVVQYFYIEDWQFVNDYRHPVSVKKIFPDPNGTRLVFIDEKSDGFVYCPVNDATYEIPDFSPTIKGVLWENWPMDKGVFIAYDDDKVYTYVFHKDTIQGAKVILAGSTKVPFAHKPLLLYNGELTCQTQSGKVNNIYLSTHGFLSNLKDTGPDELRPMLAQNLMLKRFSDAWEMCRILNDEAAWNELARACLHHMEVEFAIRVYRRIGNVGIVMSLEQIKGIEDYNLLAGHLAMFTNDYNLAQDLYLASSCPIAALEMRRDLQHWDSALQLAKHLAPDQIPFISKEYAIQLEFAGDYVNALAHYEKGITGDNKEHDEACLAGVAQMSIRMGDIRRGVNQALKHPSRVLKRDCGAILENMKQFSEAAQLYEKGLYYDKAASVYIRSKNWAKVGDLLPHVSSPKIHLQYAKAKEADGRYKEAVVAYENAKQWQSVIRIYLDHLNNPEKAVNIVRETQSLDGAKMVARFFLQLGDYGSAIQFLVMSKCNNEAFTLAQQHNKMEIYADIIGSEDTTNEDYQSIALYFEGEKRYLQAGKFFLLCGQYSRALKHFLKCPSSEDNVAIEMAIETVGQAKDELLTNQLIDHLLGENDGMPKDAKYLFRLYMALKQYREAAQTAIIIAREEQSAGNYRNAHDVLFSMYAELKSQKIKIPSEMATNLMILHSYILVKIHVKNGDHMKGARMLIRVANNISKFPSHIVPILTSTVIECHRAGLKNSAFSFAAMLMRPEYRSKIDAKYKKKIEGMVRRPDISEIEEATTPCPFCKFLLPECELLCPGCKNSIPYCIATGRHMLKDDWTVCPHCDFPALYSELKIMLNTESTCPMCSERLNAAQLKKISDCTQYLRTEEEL

binding (IFT122 (human)): binds
binding (WDR19 (human)): no binding
Substance: NUDC (from UniProt Q9Y266 1-331)

These are yes or no findings as the source states them, for the method shown. In cells and extracts the contact can be indirect. These calls come from enrichment with a bait or labelling near it, and not all partners need be listed. For some assays here: A no says only that the protein was not detected with the bait.
